Source: patent US20120021993A1 (AJOU UNIVERSITY INDUSTRY ACADEMIC COOPERATION FOUNDATION, published 2012)
No constants are given. Whether binding was seen depends on the method and setting. Some results given as binding are weak or reduced against the parent protein; the word gives no strength.

Protein sequences, listed by entry. Tags and fused reporters are not part of them. Lines headed by an entry give the natural chain unless they say otherwise; changes in a name come on top. Chains listed by the source or under a name are the forms on record and can include a tag or linker. Residues count along the entry.
human-derived cell death receptor 4, extracellular domain (amino acid residues 1-216), 6xHis tag (O00220, form named): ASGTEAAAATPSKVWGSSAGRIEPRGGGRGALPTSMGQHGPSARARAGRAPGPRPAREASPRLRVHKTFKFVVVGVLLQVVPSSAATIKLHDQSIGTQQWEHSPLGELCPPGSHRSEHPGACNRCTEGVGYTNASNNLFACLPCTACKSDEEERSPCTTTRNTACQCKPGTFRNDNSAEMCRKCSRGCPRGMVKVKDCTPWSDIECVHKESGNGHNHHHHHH

Columns and labels:
[1] = target: human-derived cell death receptor 4, extracellular domain (amino acid residues 1-216), 6xHis tag (human) (UniProt O00220); assay: ELISA, coated target, A405
[2] = target: human-derived cell death receptor 4, extracellular domain (amino acid residues 1-216), 6xHis tag (human) (UniProt O00220); assay: ELISA
[3] = target: human-derived cell death receptor 4, extracellular domain (amino acid residues 1-216), 6xHis tag (human) (UniProt O00220); assay: ELISA, coated DR4, A405
[4] = target: human-derived cell death receptor 4, extracellular domain (amino acid residues 1-216), 6xHis tag (human) (UniProt O00220); assay: ELISA and sandwich ELISA (plate-coated DR4, soluble DR5)
[5] = target: human-derived cell death receptor 4, extracellular domain (amino acid residues 1-216), 6xHis tag (human) (UniProt O00220); assay: sandwich ELISA (figure legend)
[6] = target: human-derived cell death receptor 4, extracellular domain (amino acid residues 1-216), 6xHis tag (human) (UniProt O00220); assay: sandwich ELISA: DR4 coated, binder titrated, soluble DR5 detected, A405
[7] = target: human-derived cell death receptor 4, extracellular domain (amino acid residues 1-216), 6xHis tag (human) (UniProt O00220); assay: yeast display, flow cytometry MFI [panel KD413]
[8] = target: human-derived cell death receptor 4, extracellular domain (amino acid residues 1-216), 6xHis tag (human) (UniProt O00220); assay: yeast display, flow cytometry MFI
[9] = target: human-derived cell death receptor 4, extracellular domain (amino acid residues 1-216), 6xHis tag (human) (UniProt O00220); assay: yeast display, flow cytometry MFI [panel KD415]
[10] = target: human-derived cell death receptor 4, extracellular domain (amino acid residues 1-216), 6xHis tag (human) (UniProt O00220); assay: yeast display, flow cytometry MFI [panel KD548]
DcR1 [11] = target: T1, DcR1 (UniProt O14798 26-221, limits assumed); assay: ELISA, coated target, single binder concentration not given, A405
T1 sequence (looked up): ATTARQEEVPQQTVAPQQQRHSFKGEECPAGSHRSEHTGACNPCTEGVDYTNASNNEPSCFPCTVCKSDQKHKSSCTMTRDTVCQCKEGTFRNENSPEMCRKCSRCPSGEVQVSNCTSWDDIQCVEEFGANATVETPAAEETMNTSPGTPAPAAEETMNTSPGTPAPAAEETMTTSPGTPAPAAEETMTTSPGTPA

DcR1 [12] = target: T1, DcR1; assay: cross-reactivity ELISA
[13] = target: human-derived cell death receptor 4, extracellular domain (amino acid residues 1-216), 6xHis tag (human) (UniProt O00220); assay: ELISA, coated target, single binder concentration not given, A405
DcR2 = target: T2, DcR2 (UniProt Q9UBN6 56-211, limits assumed); assay: as above
T2 sequence (looked up): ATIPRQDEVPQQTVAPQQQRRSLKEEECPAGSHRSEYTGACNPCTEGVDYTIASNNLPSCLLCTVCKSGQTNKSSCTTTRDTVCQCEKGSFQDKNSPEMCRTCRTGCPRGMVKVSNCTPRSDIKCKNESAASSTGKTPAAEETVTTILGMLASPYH

B1: KD413-KD415 hetero-dimer (designed binder, not shown: small tags and cut ends)
chain: CAKAEGTGYDGHEHKTHKGIRCQNWYKSKPHYHGHQFRDGDKIKNKKNYCRNPDPRAGPWCFTHGNRNRYELCNQPRCGGGGSGGGGSGGGGSGGGGSCTRSKGDEYDGHKHKTNRGLRCQHWPGTKPHFHGDKIKDRHGFRLKKNYCRNPDPQDQPWCFTNRHQHKNELCNQPRC
binding [1]: binds | binding [2]: binds

B2: KD413-KD506 hetero-dimer (designed binder, not shown: small tags and cut ends)
chain: CAKAEGTGYDGHEHKTHKGIRCQNWYKSKPHYHGHQFRDGDKIKNKKNYCRNPDPRAGPWCFTHGNRNRYELCNQPRCGGGGSGGGGSGGGGSGGGGSCPEDRGHEYDGDGDKTNRGHGCQYWDQNKPHHHGHRDKDKFKHRIKKNYCRNPDYETGPWCFTNRYRNKNELCHEPRC
binding [3]: binds | binding [4]: binds | binding [5]: binds | binding [6]: binds

B3: L1234 (KD413) (designed binder)
chain: CAKAEGTGYDGHEHKTHKGIRCQNWYKSKPHYHGHQFRDGDKIKNKKNYCRNPDRELRPWCFTTDPNKRWELCDIPRC
notes: also called KD413L1234
binding [7]: binds

B4: KD413L56 (designed binder)
chain: CMHCSGENYDGKISKTMSGLECQAWDSQSPHAHGYIPSKFPNKNLKKNYCRNPDPRAGPWCFTHGNRNRYELCDIPRC
binding [8]: binds | binding [7]: binds

B5: KD415L567 (designed binder)
chain: CMHCSGENYDGKISKTMSGLECQAWDSQSPHAHGYIPSKFPNKNLKKNYCRNPDPQDQPWCFTNRHQHKNELCNQPRC
binding [9]: binds | binding [8]: binds

B6: KD548L56 (designed binder)
chain: CMHCSGENYDGKISKTMSGLECQAWDSQSPHAHGYIPSKFPNKNLKKNYCRNPDNKHEPWCFTHGHRDKHELCDIPRC
binding [10]: binds

B7: L5 (KD413) (designed binder)
chain: CMHCSGENYDGKISKTMSGLECQAWDSQSPHAHGYIPSKFPNKNLKKNYCRNPDPRAGPWCFTTDPNKRWELCDIPRC
notes: also called KD413L5
binding [7]: binds

B8: L56 (KD415) (designed binder)
chain: CMHCSGENYDGKISKTMSGLECQAWDSQSPHAHGYIPSKFPNKNLKKNYCRNPDPQDQPWCFTNRHQHKNELCDIPRC
notes: also called KD415L56
binding [9]: binds

B9: L567 (KD413) (designed binder)
chain: CMHCSGENYDGKISKTMSGLECQAWDSQSPHAHGYIPSKFPNKNLKKNYCRNPDPRAGPWCFTHGNRNRYELCNQPRC
notes: also called KD413L567
binding [7]: binds

B10: L567 (KD548) (designed binder)
chain: CMHCSGENYDGKISKTMSGLECQAWDSQSPHAHGYIPSKFPNKNLKKNYCRNPDNKHEPWCFTHGHRDKHELCHEPRC
notes: also called KD548L567; not shown: Aga2p display anchor, linker and c-myc tag of the pCTCON yeast display vector
binding [10]: binds

B11: L1234 (KD415) (designed binder)
chain: CTRSKGDEYDGHKHKTNRGLRCQHWPGTKPHFHGDKIKDRHGFRLKKNYCRNPDRELRPWCFTTDPNKRWELCDIPRC
notes: also called KD415L1234
binding [9]: binds

B12: L1234 (KD548) (designed binder)
chain: CHQTQGPKYDGNKDKTHKGHKCQSWTKNRPHHHGNKIENEDENRFQKNYCRNPDRELRPWCFTTDPNKRWELCDIPRC
notes: also called KD548L1234
binding [10]: binds

B13: KD404 (designed binder)
chain: CSRDKGYRYDGDGNKTLKGHKCQHWTKSKPHDHGYRHKLGNEDKFKKNYCRNPDTRAGPWCFTDQYRDRDELCYQPRC
notes: Soluble monomer from Pichia pastoris; also called anti-DR4 Kringle domain variant KD404; not shown: C-terminal myc tag-6xHis tag of pPICZaA
binding (DcR1 [11]): binds | binding (DcR1 [12]): binds

B14: KD449 (designed binder)
chain: CDRYKGYRYDGHRYKTHKGHKCQHWDEDQPHNHGHGHRIKDGFEVRKNYCRNPDAGTKPWCFTDKDQNRHELCYKPRC
binding [1]: binds | binding [13]: binds

B15: KD542 (designed binder)
chain: CNRAGGHKYDGDRYRTHRGDGCQNWAKTKPHHHGIGHRDKIRDKYRKNYCRNPDAKNGPWCFTNRNGDKNELCIQPRC
notes: Soluble monomer from Pichia pastoris; not shown: C-terminal myc tag-6xHis tag of pPICZaA
binding (DcR1 [11]): binds | binding (DcR2): binds

B16: KD559 (designed binder, not shown: small tags and cut ends)
chain: CNKHKGPRYDGHKDKTNKGHECQPWNRPKPHDHGHKHQFKDKNRLEKNYCRNPDHRNEPWCFTHGNRNGDELCFRPRC
binding [13]: binds | binding (DcR1 [11]): binds | binding (DcR2): binds
